In paper PMC4931344, “The FNIP co-chaperones decelerate the Hsp90 chaperone cycle and enhance drug binding” (Nature Communications, 2016):
These are yes or no findings as the source states them, for the method shown. In cells and extracts the contact can be indirect. A yes stands for co-enrichment or nearness to the bait. Other partners may have been found. Tags and fused reporters may be left off the sequences shown.

The chains behind the UniProt entries cited, without tags or fusion partners.
UniProt Q99832: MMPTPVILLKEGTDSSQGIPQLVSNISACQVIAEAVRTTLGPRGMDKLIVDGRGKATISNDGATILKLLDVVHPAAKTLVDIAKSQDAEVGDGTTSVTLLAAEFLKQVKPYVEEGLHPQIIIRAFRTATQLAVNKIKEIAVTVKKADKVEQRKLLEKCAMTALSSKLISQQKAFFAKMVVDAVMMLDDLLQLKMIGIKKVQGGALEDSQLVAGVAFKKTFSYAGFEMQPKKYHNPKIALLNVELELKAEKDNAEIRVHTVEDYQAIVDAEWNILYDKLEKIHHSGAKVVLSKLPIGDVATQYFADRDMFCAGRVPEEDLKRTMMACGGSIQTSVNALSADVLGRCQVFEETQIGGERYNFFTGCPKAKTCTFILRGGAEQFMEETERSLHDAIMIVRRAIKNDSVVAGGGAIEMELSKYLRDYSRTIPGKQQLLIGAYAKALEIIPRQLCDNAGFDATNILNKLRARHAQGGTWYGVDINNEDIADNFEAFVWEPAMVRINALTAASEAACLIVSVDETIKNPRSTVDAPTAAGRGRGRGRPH
UniProt O95433: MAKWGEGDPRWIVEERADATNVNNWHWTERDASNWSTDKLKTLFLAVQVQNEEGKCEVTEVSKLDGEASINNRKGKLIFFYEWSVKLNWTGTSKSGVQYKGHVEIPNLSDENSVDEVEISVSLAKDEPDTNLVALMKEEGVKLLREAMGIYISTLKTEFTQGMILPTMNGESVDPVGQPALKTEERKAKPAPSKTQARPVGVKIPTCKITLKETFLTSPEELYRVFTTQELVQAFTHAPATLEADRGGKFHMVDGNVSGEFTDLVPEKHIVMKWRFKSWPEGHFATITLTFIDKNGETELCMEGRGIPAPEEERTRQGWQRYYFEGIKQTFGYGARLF
UniProt P50990: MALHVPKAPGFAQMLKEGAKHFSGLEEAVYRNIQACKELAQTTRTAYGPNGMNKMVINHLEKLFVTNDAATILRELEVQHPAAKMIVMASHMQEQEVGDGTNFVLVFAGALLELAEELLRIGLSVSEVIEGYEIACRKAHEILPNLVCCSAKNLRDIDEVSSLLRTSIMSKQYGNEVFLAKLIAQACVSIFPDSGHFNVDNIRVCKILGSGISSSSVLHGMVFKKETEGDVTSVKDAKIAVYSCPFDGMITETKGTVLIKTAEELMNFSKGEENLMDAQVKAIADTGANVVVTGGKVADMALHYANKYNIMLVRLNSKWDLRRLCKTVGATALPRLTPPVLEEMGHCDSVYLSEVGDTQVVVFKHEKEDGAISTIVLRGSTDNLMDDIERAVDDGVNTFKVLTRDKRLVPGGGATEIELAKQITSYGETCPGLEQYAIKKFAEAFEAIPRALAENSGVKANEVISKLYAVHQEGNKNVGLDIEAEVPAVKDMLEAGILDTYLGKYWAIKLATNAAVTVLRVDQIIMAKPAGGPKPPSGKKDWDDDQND
UniProt Q9UNE7: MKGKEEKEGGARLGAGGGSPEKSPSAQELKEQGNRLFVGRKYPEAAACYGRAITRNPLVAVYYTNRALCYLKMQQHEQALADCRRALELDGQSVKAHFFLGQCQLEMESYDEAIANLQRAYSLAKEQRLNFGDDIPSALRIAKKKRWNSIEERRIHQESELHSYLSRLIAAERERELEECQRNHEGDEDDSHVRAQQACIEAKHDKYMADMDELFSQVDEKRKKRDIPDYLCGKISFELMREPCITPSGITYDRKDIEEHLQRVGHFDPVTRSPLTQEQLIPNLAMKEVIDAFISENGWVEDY

T1: FLAG–FLCN (amino-terminally FLAG-tagged folliculin) (UniProt Q8NFG4)
T1 sequence: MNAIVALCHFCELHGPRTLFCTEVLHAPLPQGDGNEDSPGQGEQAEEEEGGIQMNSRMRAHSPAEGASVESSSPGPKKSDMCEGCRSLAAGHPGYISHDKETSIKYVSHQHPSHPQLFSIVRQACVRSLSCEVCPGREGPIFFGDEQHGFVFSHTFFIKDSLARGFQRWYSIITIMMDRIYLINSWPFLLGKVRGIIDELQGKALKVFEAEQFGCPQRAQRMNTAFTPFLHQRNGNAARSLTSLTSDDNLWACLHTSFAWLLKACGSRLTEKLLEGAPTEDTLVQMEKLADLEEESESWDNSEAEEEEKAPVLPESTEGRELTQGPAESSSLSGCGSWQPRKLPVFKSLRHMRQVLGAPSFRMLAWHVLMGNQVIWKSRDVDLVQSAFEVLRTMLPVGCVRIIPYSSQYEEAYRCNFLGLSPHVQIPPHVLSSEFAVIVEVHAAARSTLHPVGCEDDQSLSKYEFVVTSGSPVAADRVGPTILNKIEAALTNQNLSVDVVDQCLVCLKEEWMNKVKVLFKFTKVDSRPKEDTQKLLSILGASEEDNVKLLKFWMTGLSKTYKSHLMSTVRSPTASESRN


Molecular target: T1, FLAG–FLCN (amino-terminally FLAG-tagged folliculin)
Test: affinity purification with mass spectrometry; FLAG–FLCN transiently expressed in HEK293, immunoprecipitated with anti-FLAG M2 affinity gel; gel bands, MALDI–time of flight

Row | Molecule | binding
1 | CCT7, endogenous (from UniProt Q99832 1-543) | binds
2 | Aha1, endogenous (from UniProt O95433 1-338) | binds
3 | CCT8, endogenous (from UniProt P50990 1-548) | binds
4 | CHIP, endogenous (from UniProt Q9UNE7 1-303) | binds
5 | HOP, endogenous (from UniProt P31948 1-543) | binds
6 | CCT2, endogenous (protein, UniProt P78371 1-535) MASLSLAPVNIFKAGADEERAETARLTSFIGAIAIGDLVKSTLGPKGMDKILLSSGRDASLMVTNDGATILKNIGVDNPAAKVLVDMSRVQDDEVGDGTTSVTVLAAELLREAESLIAKKIHPQTIIAGWREATKAAREALLSSAVDHGSDEVKFRQDLMNIAGTTLSSKLLTHHKDHFTKLAVEAVLRLKGSGNLEAIHIIKKLGGSLADSYLDEGFLLDKKIGVNQPKRIENAKILIANTGMDTDKIKIFGSRVRVDSTAKVAEIEHAEKEKMKEKVERILKHGINCFINRQLIYNYPEQLFGAAGVMAIEHADFAGVERLALVTGGEIASTFDHPELVKLGSCKLIEEVMIGEDKLIHFSGVALGEACTIVLRGATQQILDEAERSLHDALCVLAQTVKDSRTVYGGGCSEMLMAHAVTQLANRTPGKEAVAMESYAKALRMLPTIIADNAGYDSADLVAQLRAAHSEGNTTAGLDMREGTIGDMAILGITESFQVKRQVLLSAAEAAEVILRVDNIIKAAPRKRVPDHHPC | binds
